From patent US20110165145A1, “IGF-II/IGF-IIE BINDING PROTEINS” (priority 2008, published 2011)
These are yes or no findings as the source states them, for the method shown. Some binding calls cover weakened binding; strength is not graded here.

By UniProt entry, the sequences of proteins in these tests, tags left out. Where a name states a change or a piece, a line headed by the entry shows the natural chain unless it says otherwise. Residues count along the entry.
UniProt P01344: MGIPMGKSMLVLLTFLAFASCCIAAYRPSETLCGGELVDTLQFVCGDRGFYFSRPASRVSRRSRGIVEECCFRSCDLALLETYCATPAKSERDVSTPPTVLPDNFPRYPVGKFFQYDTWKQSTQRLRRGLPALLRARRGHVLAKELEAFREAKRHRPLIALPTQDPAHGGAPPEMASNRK
UniProt P05019, residues 49-118: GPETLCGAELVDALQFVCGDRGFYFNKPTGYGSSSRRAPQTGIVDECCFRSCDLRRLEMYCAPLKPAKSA

How the values were obtained:
[1] = molecular target: IGF-IIE (amino acids 1-104 of pro-IGF-II) (human) (UniProt P01344); assay: SPR, IgG captured on anti-human Fc chip, ligand as analyte
[2] = molecular target: insulin-like growth factor I (IGF-I) (UniProt P05019); assay: SPR (BIAcore)
[3] = molecular target: insulin-like growth factor II (IGF-II), amino acids 1-67 (human) (UniProt P01344); assay: SPR (BIAcore)
[4] = molecular target: insulin-like growth factor II (IGF-II), amino acids 1-67 (human) (UniProt P01344); assay: SPR: DX-2647 captured through its Fc, free IGF-II injected; concentration not on the sheet
[5] = molecular target: insulin-like growth factor II (IGF-II), amino acids 1-67 (human) (UniProt P01344); assay: SPR, Fc-captured antibody
[6] = molecular target: IGF-IIE (amino acids 1-104 of pro-IGF-II) (human) (UniProt P01344); assay: phage selection and sFab ELISA
[7] = molecular target: insulin-like growth factor II (IGF-II), amino acids 1-67 (human) (UniProt P01344); assay: phage selection and sFab ELISA

Measured: binding

B1: DX-2647 (antibody, human IgG1, kappa, V domains shown)
VH: EVQLLESGGGLVQPGGSLRLSCAASGFTFSNYIMWWVRQAPGKGLEWVSVISSSGGGTLYADSVKGRFTISRDNSKNTLYLQMNSLRAEDTAVYYCARDNGDYVGEKGFDIWGQGTMVTVSS
VL: DIQMTQSPSSLSASVGDRVTITCRASQSISNYLNWYQQKPGKAPKLLIYTASTLQSGVPSRFSGSGSGTDFTLTISSLQPEDFATYYCQQSYNSPWTFGQGTKVEIKR
binds: [1] | [2] | [3] | [4] | [5]

B2: M0070-H08 Fab (Fab, V domains shown)
VH: EVQLLESGGGLVQPGGSLRLSCAASGFTFSRYWMIWVRQAPGKGLEWVSSIRSSGETKYADSVKGRFTISRDNSKNTLYLQMNSLRAEDTAVYYCARGPLSDYYDSSGYYFDAFDIWGQGTMVTVSS
VL: DIQMTQSPSSLSASAGDRVTITCRASQSISSYLNWYQQKPGKAPNLLIYTTSNLQGGVPSRFSGSGSGTDFTLTISSLQPEDFATYYCQQGYSFPLTFGGGTKVEIKR
binds: [6] | [7]
